Data taken from patent US12037414 (dated 2024).

Key:
[1] = general procedure: solution-phase peptide synthesis; T3P/DIPEA in DMF; conditions: late stage modification step
[2] = solution-phase peptide synthesis; T3P/DIPEA in DMF; conditions: coupling step

Substance	step yield [1] [%]	purity (crude or final not stated) ([1]; HPLC) [%]	step yield ([1]; corrected yield) [% corrected yield]	step yield ([2]; run 1) [%]	step yield ([2]; run 2) [%]
D-arginyl-2,6-dimethyl-L-tyrosyl-L-lysyl-L-phenylalaninamide	99	98.0	88		
Boc-D-Arg-DMT-Lys(Boc)-Phe-NH2				17.5	22.2
